Source: patent publication US20110275573A1, “TISSUE ADHESIVE” (METAMOREFIX LTD., priority 2008, published 2011)
Some results were stated once for a whole list of compounds, not compound by compound.

Test system: human foreskin fibroblasts (FF1)
Assay: Cell attachment assay in monolayers (peptide-coated Sepharose beads)
Assay type: cell-based
Conditions: 6 mg peptide/ml; FIG. 1
Description: A peptide solution in coupling buffer prepared as above was immediately added to the activated Sepharose beads Sepharose beads were used to fixate the peptides for all in-vitro assays in the column to a final binding of 6 mg peptide per ml gel. The column was closed and shaken overnight at 4° C. very gently to avoid mechanical breakage of the beads. The bottom cap of the column was removed and the solution of ligand/buffer was collected as the Sepharose Beads settled on the filter. The OD280 of the collected buffer was checked to determine the concentration of uncoupled peptide. The gel was washed/aspirated with 5 volumes (˜2 ml) of coupling buffer and gently mixed. Any remaining active groups on the gel were blocked with blocking buffer for 2 hours at room temperature or overnight at 4° C. The Sepharose beads gel with peptides was then washed by 2 cycles each of 5 gel volumes of: • a. 0.1 M Acetate buffer • b. Coupling buffer • c. Storing buffer: azide-coupling buffer: coupling buffer containing 0.1% NaN3 (final concentration)
The tested peptides (Table 1) were coupled to Sepharose Beads at two concentrations: 6 and 12 mg/ml Sepharose Beads. […] The fraction of Sepharose beads attached to the monolayer was determined at different times.

Sequence	time to reach 100% cell binding of FF1
KTRWYSMKKTTMKIIPFNR [PreC, positive control peptide, reference compound]	less than 24 hours
KGYKYSYKVSEMKVRPAK [C-Fic-a-K]	less than 24 hours
